# Experimental data taken from article PMC11430333.
# No constants are given. Whether binding was seen depends on the method and setting. Binding seen in cells or lysates may run through a third protein. For some of these results: A result given as binding can be weak or reduced; the word gives no strength. Where a sequence is shown, tags or fusion partners need not be part of it.
# B1: Flag-RSAD2 (porcine radical S-adenosyl methionine domain-containing 2) (protein, UniProt Q9MZU4 1-362)
# chain: MWTLVPVTFALRLLSTFVQPLGSLGSSLGPLFLWLWAAFWRAGGDRSRQQLQGKTEAGEPPRAQEDSHLPTTPTSVNYHFTRQCNYKCGFCFHTAKTSFVLPLEEAKRGLWLLKEAGMEKINFSGGEPFIHDRGEYLGKLVRFCKEELQLPSVSIVSNGSLIWERWFKSYGEYLDILAISCDSFDEQVNVLIGRGQGKKNHVENLQKLRTWCRDYKVAFKINSVINRFNVEEDMTEHIKALNPVRWKVFQCLLIEGENVGEDALREAEQFVISDEEFEEFLDRHKDVSCLVPESNRQMRDSYLILDEYMRFLNCRNGRKDPSKSILDVGVEKAIKFSGFDEKMFLKRGGKYVWSKADLKLDW
# What was measured:
# Assay in all cases: co-IP; HEK-293T cells co-transfected for 24 h with Flag-RSAD2 and GFP-tagged viral proteins or 2C segments, NP40 lysis buffer, five washes; the precipitating antibody is not named for these panels (Figures 3B, 4B, 4C)
# [1] = molecular target: GFP-2C (aa 101-322) (Senecavirus A)
# [2] = molecular target: GFP-2C (aa 201-322) (Senecavirus A)
# [3] = molecular target: GFP-L (Senecavirus A L protein) (Senecavirus A)
# [4] = molecular target: GFP-3D (Senecavirus A 3D protein) (Senecavirus A)
binder,measurement,setting,value
B1,binding,[1],binds
same,binding,[2],binds
same,binding,[3],binds weakly
same,binding,[4],no binding
